Source: PubChem BioAssay AID1259254 (NCATS, 2017)
The whole screen tested about 59,000 reagents; below is a part drawn at random. About 1,550 of all reagents (2.6%) count as active. 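G2 share is only a proxy for re-replication; each gene was hit by three separate siRNAs, and active genes were retested.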 Unmarked entries are inactive. Reagents against one gene are numbered here. Further read-outs or replicates are left out here. The record does not give: the amount of reagent.

Aim: 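Finding genes that stop cells copying their DNA twice in one cycle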 (primary screen)
Cells: human HCT116 colorectal cancer cells
Knock-down reagent: single siRNA against human genes
Time to read-out: 3 days
Measured: 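Imaged Hoechst DNA stain sorts each cell into a cycle phase by DNA amount; per plate, G2 fraction set to 0% for non-targeting and 100% for GMNN siRNA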
Scale: G2 robust z-score and G2 cells, % of GMNN control: higher = more G2 cells, more excess DNA replication
Active means: 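Active siRNAs have a G2 robust z of 5 or more median absolute deviations over the median, which in these data means about 38% or higher of GMNN control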

G2 robust z-score	G2 cells, % of GMNN control	Gene	siRNA no.
1.01	10.1	PSMG1 (proteasome assembly chaperone 1)	1
-1.24	-5.73	PSMG1 (proteasome assembly chaperone 1)	2
-0.837	-2.92	PSMG1 (proteasome assembly chaperone 1)	3
0.0157	3.08	ZNF883 (zinc finger protein 883)	1
-0.556	-0.943	ZNF883 (zinc finger protein 883)	2
0.183	4.25	ZNF883 (zinc finger protein 883)	3
0.235	4.62	LINC02687 (long independently transcribed non-coding RNA 2687)	1
0.793	8.55	LINC02687 (long independently transcribed non-coding RNA 2687)	2
-1.12	-4.92	LINC02687 (long independently transcribed non-coding RNA 2687)	3
0.21	4.44	PKD1L3	1
-0.915	-3.47	PKD1L3	2
-1.39	-6.81	PKD1L3	3
1.51	13.6	NANOS1 (nanos C2HC-type zinc finger 1)	1
2.51	20.6	NANOS1 (nanos C2HC-type zinc finger 1)	2
-0.692	-1.9	NANOS1 (nanos C2HC-type zinc finger 1)	3
-0.158	1.85	APCS (amyloid P component, serum)	1
1.02	10.2	APCS (amyloid P component, serum)	2
-0.626	-1.44	APCS (amyloid P component, serum)	3
-0.399	0.16	LINC00602 (long independently transcribed non-coding RNA 602)	1
1.62	14.3	LINC00602 (long independently transcribed non-coding RNA 602)	2
-0.808	-2.72	LINC00602 (long independently transcribed non-coding RNA 602)	3
-1.06	-4.5	OR2T12 (olfactory receptor family 2 subfamily T member 12)	1
0.188	4.29	OR2T12 (olfactory receptor family 2 subfamily T member 12)	2
0.306	5.12	OR2T12 (olfactory receptor family 2 subfamily T member 12)	3
-0.633	-1.48	ARID4B (AT-rich interaction domain 4B)	1
-0.637	-1.51	ARID4B (AT-rich interaction domain 4B)	2
4.89	37.4	ARID4B (AT-rich interaction domain 4B)	3
0.173	4.18	BAG4 (BAG cochaperone 4)	1
3.66	28.7	BAG4 (BAG cochaperone 4)	2
0.245	4.69	BAG4 (BAG cochaperone 4)	3
0.807	8.65	ANO1 (anoctamin 1)	1
0.0181	3.09	ANO1 (anoctamin 1)	2
3.92	30.6	ANO1 (anoctamin 1)	3

8 entries from above in another layout.
| G2 robust z-score | G2 cells, % of GMNN control | Gene | siRNA no. |
| --- | --- | --- | --- |
| -0.915 | -3.47 | PKD1L3 | 2 |
| -1.39 | -6.81 | PKD1L3 | 3 |
| 1.51 | 13.6 | NANOS1 (nanos C2HC-type zinc finger 1) | 1 |
| 2.51 | 20.6 | NANOS1 (nanos C2HC-type zinc finger 1) | 2 |
| -0.692 | -1.9 | NANOS1 (nanos C2HC-type zinc finger 1) | 3 |
| -0.158 | 1.85 | APCS (amyloid P component, serum) | 1 |
| 1.02 | 10.2 | APCS (amyloid P component, serum) | 2 |
| -0.626 | -1.44 | APCS (amyloid P component, serum) | 3 |

The listing continues.
G2 robust z-score	G2 cells, % of GMNN control	Gene	siRNA no.
-0.186	1.66	SLCO4A1	1
-0.598	-1.24	SLCO4A1	2
0.264	4.83	SLCO4A1	3
0.332	5.31	NUDT18 (nudix hydrolase 18)	1
0.176	4.2	NUDT18 (nudix hydrolase 18)	2
-0.699	-1.95	NUDT18 (nudix hydrolase 18)	3
-1.05	-4.42	NOX4 (NADPH oxidase 4)	1
12.9 (active)	93.7	NOX4 (NADPH oxidase 4)	2
0.0853	3.57	NOX4 (NADPH oxidase 4)	3
0.159	4.08	RNASEL (ribonuclease L)	1
-0.806	-2.71	RNASEL (ribonuclease L)	2
-1.48	-7.41	RNASEL (ribonuclease L)	3
0.0671	3.44	SP110 (SP110 nuclear body protein)	1
-0.0685	2.49	SP110 (SP110 nuclear body protein)	2
-0.608	-1.31	SP110 (SP110 nuclear body protein)	3
-1.03	-4.26	NLRX1 (NLR family member X1)	1
0.456	6.18	NLRX1 (NLR family member X1)	2
-1.25	-5.86	NLRX1 (NLR family member X1)	3
-0.509	-0.612	MYSM1 (Myb like, SWIRM and MPN domains 1)	1
-0.63	-1.47	MYSM1 (Myb like, SWIRM and MPN domains 1)	2
-1.1	-4.79	MYSM1 (Myb like, SWIRM and MPN domains 1)	3
-0.395	0.191	ANKRD50 (ankyrin repeat domain 50)	1
-0.154	1.88	ANKRD50 (ankyrin repeat domain 50)	2
-0.302	0.846	ANKRD50 (ankyrin repeat domain 50)	3
0.186	4.28	SMYD1 (SET and MYND domain containing 1)	1
0.189	4.3	SMYD1 (SET and MYND domain containing 1)	2
0.238	4.64	SMYD1 (SET and MYND domain containing 1)	3
-0.0919	2.32	TSPYL5 (TSPY like 5)	1
0.462	6.22	TSPYL5 (TSPY like 5)	2
-0.352	0.492	TSPYL5 (TSPY like 5)	3
-1.73	-9.24	HGFAC (HGF activator)	1
1.49	13.5	HGFAC (HGF activator)	2
-0.0983	2.28	HGFAC (HGF activator)	3
0.0199	3.11	RIC1 (RIC1 partner of RAB6A GEF complex)	1
-0.856	-3.05	RIC1 (RIC1 partner of RAB6A GEF complex)	2
-0.261	1.13	RIC1 (RIC1 partner of RAB6A GEF complex)	3
